Measured values: patent US20250270328A1
No constants are given. Whether binding was seen depends on the method and setting. Some binding calls cover weakened binding; strength is not graded here.

Columns and labels:
[1] = biological target: T1, cynomolgus KLRB1 expressed on CHO-K1 cells (CHO-cyno-KLRB1) (cynomolgus); assay: FACS on CHO-cyno-KLRB1 cells, concentration range up to 90 nM
T1 sequence: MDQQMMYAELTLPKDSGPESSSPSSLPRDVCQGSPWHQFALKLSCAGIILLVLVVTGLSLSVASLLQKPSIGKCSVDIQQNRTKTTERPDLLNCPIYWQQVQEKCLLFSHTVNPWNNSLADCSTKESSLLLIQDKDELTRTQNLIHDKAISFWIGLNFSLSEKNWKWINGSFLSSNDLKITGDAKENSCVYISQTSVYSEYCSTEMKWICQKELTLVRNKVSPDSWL

[2] = biological target: T1, cynomolgus KLRB1 expressed on CHO-K1 cells (CHO-cyno-KLRB1) (cynomolgus); assay: FACS on CHO-cyno-KLRB1 cells

- binding [1]: binds
- binding [2]: binds
B1: 10A3D6hum2.2 (antibody, human IgG1, kappa, V domains shown)
VH: QVQLVQSGAEVKKPGASVKVSCKASGYSFTGYTMNWVRQAPGQNLEWIGLINPNTGGTYYNQKFKDRVTLTVDTSISTAYMELSRLRSDDTAVYYCARLGDNYRGYFDSWGQGTTVTVSS
VL: DIQLTQSPSFLSASVGDRVTITCKASQDVGTAVVWYQQKPGKAPKLLIDWASIRHTGVPSRFSGSGSGTEFTLTISSLQPEDFADYFCQQYSTYLYTFGGGTKLEIKR
